From the supplement of paper PMC10338343
± gives the standard deviation. The entries are a selection whose mix differs from that of the whole data set. Many entries were measured with a wide error.

tested on: MILI (PIWIL2) piRISC loaded with piRNA #1 (26 nt); experiment: pre-steady-state target cleavage rate (min^-1); MIWI and MILI are mouse PIWI proteins and EfPiwi is from a freshwater sponge; tags in brackets are library labels; higher = faster piRNA-guided slicing of the target; details: guide: piRNA #1 5'p-UGAGGUAGUAGGUUGUAUAGUAUCCA; auxiliary factor: 500 nM mouse GTSF1
Procedure, shortened: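 With or without 500 nM GTSF1 partner protein, 1 nM active affinity-purified piRISC carrying one synthetic guide was mixed with 0.1 nM transcribed, DNA-blocked target RNA library in HEPES–potassium acetate buffer at 33 °C for 0–8 or 0–960 min. Uncleaved targets were sequenced and normalised to depth and to weakly complementary targets, three trials were pooled, and k3 was capped at 0.0001 min^-1. The pre-steady-state cleavage rate came from a burst-and-steady-state fit.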

Row | Sequence | pre-steady-state target cleavage rate
1 | GGAGACCUAACUAUACAUCCUACUACGUCA | 0.173 ± 0.052
2 | GGAGUGGAAACUAUACAACCAACUACCUCA | 0.0025 ± 0.006
3 | GGAGAGGAUACUAUAUCAACCUACUACCUCA | 0.107 ± 0.0098
4 | GGAGACCUAUCUAUACAACCUACUUGGAGA [g7:g20:cont:t1A] | 0.00296 ± 0.0032
5 | GGAGACGAUACUAUACAACCUUCUUCCUCA | 0.00309 ± 0.0034
6 | GGAGACCUUACUAUACAACCUACUACUCUCA | 0.242 ± 0.025
7 | GGAGUGGAUACUAUACAACCUUACUACCUCA | 0.00105 ± 0.0038
8 | GGAGAGGAUACUAUACAACCUACUACUUCA | 0.153 ± 0.015
9 | GGAGUGGAAACUAUACAACCUACUACGUCA | 0.0633 ± 0.012
10 | GGAGACCUUACUAUAUCAACCUACUACCUCA | 0.0609 ± 0.0086
11 | GGAGACCUUACUAUACAACCAACUACCACA | 0.00377 ± 0.0038
12 | GGAGUGGAUACUAUUCAACCUACUACCACA | 0.093 ± 0.0098
13 | GGAGACGAUACAAUACAACGUACUACCUCA | 0.0185 ± 0.0029
14 | GGAGACCUAUCUAUUCAACCUACUACGUCA | 0.0451 ± 0.0089
15 | GGAGACCUAACUAUACAACCAACUACGUCA | 0.00208 ± 0.0062
16 | GGAGUGGAAACUAUACAACCUACUUCCUCA | 0.00207 ± 0.0039
17 | GGAGAGGAUACUAUACAACCAUCUACCUCA | 0.00516 ± 0.0022
18 | GGAGACGAUACAUAUACAACCUACUACCUCA | 0.111 ± 0.013
19 | GGAGACCUAUGUAUAGAACCUACUACCUGA | 0.00583 ± 0.0025
20 | GGAGACCUAACUAUACAACCUUGAUGGAGA [g10:g21:cont:t1A] | 0.000106 ± 0.05

Row | Sequence | pre-steady-state target cleavage rate
21 | GGAGACCUAUGAUUACUUGCUACUACCUCA | 0.000215 ± 0.015
22 | GGAGACCAUACUAUACAACCAUGUACCUCA | 0.000824 ± 0.0073
23 | GGAGUGCAUACUAUACAAGCUACUACCUCA | 0.213 ± 0.014
24 | GGAGACCUUAGUAUACAACCUACUACGUCA | 0.0155 ± 0.0047
25 | GGAGACCAUACUAUACAAGGAUGAUGGAGA [g13:g23:cont:t1A] | 0.00018 ± 0.034
26 | GGAGACCUUACAAUACAACCUUCUACCUCA | 0.00687 ± 0.0029
27 | GGAGACCUAUGAUUAGAUCCUACUACCUCA | 0.000239 ± 0.01
28 | GGAGACGAUACUAUACAACCAACUUCCUCA | 0.00374 ± 0.0027
29 | GGAGACCUAUCUAUAGAACCUACUUCCUCA | 0.00536 ± 0.0024
30 | GGAGACCUAUCUAUACAACCUACUAGGACA | 0.00154 ± 0.0065
31 | GGAGACCUAUGAUAUGAUCCUACUACCUCA | 0.000118 ± 0.022
32 | GGAGACCAUACUAUACAACCUACAUACCUCA | 0.146 ± 0.018
33 | GGAGACCUAACGAUACAACCUACUACCUCA | 0.257 ± 0.053
34 | GGAGCGGAUACUAUACAACCUACUACCUCA | 0.203 ± 0.013
35 | GGAGACCUAUGUAUACAACCUACUACCUCU [g2:g19:cont:t1U] | 0.0508 ± 0.0069
36 | GGAGACGAUAGUAUACAACCUACUAGCUCA | 0.0976 ± 0.021
37 | GGAGACCUAUGAUAAAAACCUACUACCUCA | 0.00102 ± 0.0064
38 | GGAGACCUAUGAAUACAACCUAGUAGCUCA | 0.000494 ± 0.008
39 | GGAGACCUAUGAUUAGAACCUUCUACCUCA | 0.000319 ± 0.012
40 | GGAGACCUAUGAUAUGUACCUACUACCUCCA | 0.000124 ± 0.018

Excerpt: entries 22 to 23
Row | Sequence | pre-steady-state target cleavage rate
22 | GGAGACCAUACUAUACAACCAUGUACCUCA | 0.000824 ± 0.0073
23 | GGAGUGCAUACUAUACAAGCUACUACCUCA | 0.213 ± 0.014
